{
  "sequences": {"note": "Chains of the proteins cited; added tags and fusions are not shown. Lines headed by an entry give the natural chain unless they say otherwise; changes in a name come on top. A line that says so, or that is headed by a name, gives the form on record, which may keep a tag or linker.", "Myc-tagged RAPH1-i3 (RAPH1 isoform 3, encoded by RAPH1-v3) (Q70E73-9, form named)": "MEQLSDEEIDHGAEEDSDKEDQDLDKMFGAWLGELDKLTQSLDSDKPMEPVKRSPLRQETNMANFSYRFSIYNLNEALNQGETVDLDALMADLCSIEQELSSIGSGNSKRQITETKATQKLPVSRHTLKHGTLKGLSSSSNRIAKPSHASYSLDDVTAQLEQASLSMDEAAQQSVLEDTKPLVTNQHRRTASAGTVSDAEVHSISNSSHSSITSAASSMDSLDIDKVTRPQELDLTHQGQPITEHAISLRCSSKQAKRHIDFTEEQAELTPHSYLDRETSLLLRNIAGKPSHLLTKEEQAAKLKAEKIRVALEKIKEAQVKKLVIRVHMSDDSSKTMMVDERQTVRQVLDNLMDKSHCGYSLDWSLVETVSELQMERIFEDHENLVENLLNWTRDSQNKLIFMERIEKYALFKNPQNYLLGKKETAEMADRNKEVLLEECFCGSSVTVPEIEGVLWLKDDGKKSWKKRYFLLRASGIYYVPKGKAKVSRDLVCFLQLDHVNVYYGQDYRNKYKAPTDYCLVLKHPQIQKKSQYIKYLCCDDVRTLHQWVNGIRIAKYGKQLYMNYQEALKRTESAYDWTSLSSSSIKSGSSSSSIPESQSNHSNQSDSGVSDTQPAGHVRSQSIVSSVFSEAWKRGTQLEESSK"},
  "source": "paper PMC10703867",
  "biological_target": "T1, FOXQ1 in TNBC cells transfected with Myc-tagged RAPH1-i3 (human) (UniProt Q9C009)",
  "T1 sequence": "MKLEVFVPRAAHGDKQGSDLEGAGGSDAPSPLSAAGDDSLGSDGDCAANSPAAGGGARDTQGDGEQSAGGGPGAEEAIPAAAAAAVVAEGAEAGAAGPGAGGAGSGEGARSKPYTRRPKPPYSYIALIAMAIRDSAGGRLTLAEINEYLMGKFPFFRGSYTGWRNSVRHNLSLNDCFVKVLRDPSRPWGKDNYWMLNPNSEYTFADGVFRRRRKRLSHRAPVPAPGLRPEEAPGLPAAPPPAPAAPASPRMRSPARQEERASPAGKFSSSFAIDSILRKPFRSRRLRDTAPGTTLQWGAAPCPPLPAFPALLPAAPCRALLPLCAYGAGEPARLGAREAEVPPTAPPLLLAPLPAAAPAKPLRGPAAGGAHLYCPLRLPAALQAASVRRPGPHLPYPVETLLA",
  "experiment": "co-IP; TNBC cells transfected with Myc-tagged RAPH1-i3; immunoprecipitation with an anti-FOXQ1 antibody",
  "note": "Results are given in words; binding and its absence hold for the method and conditions named. Binding seen in cells or lysates may run through a third protein. Some binding calls cover weakened binding; strength is not graded here. Sequences can lack the tags named with a protein.",
  "data": [
    {"substance": "Myc-tagged RAPH1-i3 (RAPH1 isoform 3, encoded by RAPH1-v3) (from UniProt Q70E73-9 1-644)", "values": [
      {"measurement": "binding", "value": "binds"}
    ]}
  ]
}
